In all, about 1,700 compounds were measured (“T3 sensor activation Q score (MG/GFP ratio z-score vs DMSO controls)”: median about 0.25, highest 2% from about 1.9 on). Some of the results follow.

The test has as its system ppGalNAc-T3 sensor. In words: T3 sensor activation Q score (MG/GFP ratio z-score vs DMSO controls) (SD units); higher = more sensor activation (inhibition of ppGalNAc-T3 glycosylation). The settings on record: HEK293 sensor cells; 10 µM; 6 h. The method, then: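 Cells were treated with compound at 10 uM for 6 h, then MG/GFP ratio was read by flow cytometry (10,000 cells per well, duplicate wells). Q = (R - R_neg)/SD_neg relative to DMSO vehicle controls; the signal rises when the glycosyltransferase is inhibited.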
With `Clc1ccc(SCNc2ccccc2Cl)cc1`, the “T3 sensor activation Q score” value was -0.2.

Take `N=C(N)n1c(N)nc2ccccc2c1=O`: the “T3 sensor activation Q score” value is -0.55.

In the case of `C#CCCOC(=O)Nc1ccccc1`, the “T3 sensor activation Q score” value was -0.85.

Regarding `Oc1ccc(/C=C/c2cnccn2)cc1`, the “T3 sensor activation Q score” value was 0.15.

On to `CC12C(=O)N(c3nccs3)C(=O)C1(C)C1CCC2O1` (stereo not drawn), for which the “T3 sensor activation Q score” value is -0.85.

For `CCOC(=O)c1c(N)ssc1=S`, the “T3 sensor activation Q score” value came to 0.35.

For the compound `COC(=O)Cc1[nH]c(=O)[nH]c1C(=O)OC`, the “T3 sensor activation Q score” value was -0.2.

With `O=C1NC(=O)N2CCSC2(Cc2ccccc2)N1` (stereo not drawn), the “T3 sensor activation Q score” value was 1.05.

As for `C=C(C)C(=O)Oc1ccc(N=Nc2ccc(C)cc2)ccc1=O`, the “T3 sensor activation Q score” value was -1.2.

On to `Cc1cc(OCCCCOc2ccc(C#N)cc2)ccc1[N+](=O)[O-]`, for which the “T3 sensor activation Q score” value was -0.75.

With `Cc1cn(-c2cc(NC(=O)c3ccc(C)c(Nc4nccc(-c5cccnc5)n4)c3)cc(C(F)(F)F)c2)cn1`, the “T3 sensor activation Q score” value amounted to 0.5.

As to `O=[N+]([O-])c1cccc(/C=C/c2ccccn2)c1`, the “T3 sensor activation Q score” value is -0.15.

Take `CC12CCC(C(=Nc3ccc(N=C4C(=O)C5(C)CCC4C5(C)C)cc3)C1=O)C2(C)C`: the “T3 sensor activation Q score” value is -0.3.

On to `CCC(CC)NCCOC(=O)c1ccc([N+](=O)[O-])cc1`, for which the “T3 sensor activation Q score” value was -1.45.

With `OC(C#Cc1ccccc1)(c1ccccc1)c1ccccc1`, the “T3 sensor activation Q score” value worked out at 0.2.

Take `CC1=CC(C)(C)NC(=S)N1c1cccc2cc(S(=O)(=O)O)ccc12`: the “T3 sensor activation Q score” value came out at 1.4.

For the compound `CN1C(=O)CC2(C)C1=CCc1scnc12` (stereo not drawn), the “T3 sensor activation Q score” value is 1.2.

As for `Cn1c(=O)c2[nH]c(SCc3ccccn3)nc2n(C)c1=S`, the “T3 sensor activation Q score” value stood at 0.45.

In the case of `O=C(N(c1ccccc1)c1ccccc1)N(c1ccccc1)c1ccccc1`, the “T3 sensor activation Q score” value was found to be 1.

With `O=[N+]([O-])c1ccc(Sc2cccc[n+]2[O-])c2nonc12`, the “T3 sensor activation Q score” value is -1.75.

On to `C1CCCC(NC2=NCCO2)CCC1`, for which the “T3 sensor activation Q score” value was determined as 0.2.

Take `CC(C)(CO)N1CCN(C(=S)Nc2ccccc2)CC1`: the “T3 sensor activation Q score” value stood at 0.55.

With `O=c1cc(-c2ccc(O)cc2)oc2c(O)c(O)c(O)c(O)c12`, the “T3 sensor activation Q score” value is 0.4.

Consider `Cc1ccc(Nc2n[nH]c(=S)s2)cc1F`, for which the “T3 sensor activation Q score” value was -0.1.

Consider `c1ccc(-c2nc[nH]c2-c2ccccc2)cc1`, for which the “T3 sensor activation Q score” value was found to be 0.1.

`COc1ccn(C2CCCCO2)c(=O)n1` (stereo not drawn): the “T3 sensor activation Q score” value came out at 1.6.

With `CC12CCC(C1)C(C)(C)C2OC(=O)c1ccccc1C(=O)O` (stereo not drawn), the “T3 sensor activation Q score” value was 0.1.

As to `O=c1[nH]c(=O)n2ncnc2[nH]1`, the “T3 sensor activation Q score” value is -0.65.

On to `CCS(=O)(=O)C1C(=O)N(C)C(S(=O)(=O)CC)C(=O)N1C` (stereo not drawn), for which the “T3 sensor activation Q score” value came out at 0.95.

In the case of `CC1=CC(=O)Nc2cncnc2N1`, the “T3 sensor activation Q score” value was -0.3.

Take `CC(=O)N1C(=O)C2(NCC(C)N2)c2ccccc21` (stereo not drawn): the “T3 sensor activation Q score” value is -0.65.

As for `CC(=O)O[C@H]1C(=O)[C@@]2(C)[C@H]([C@H](OC(=O)c3ccccc3)[C@]3(O)C[C@H](OC(=O)[C@H](O)[C@@H](NC(=O)c4ccccc4)c4ccccc4)C(C)=C1C3(C)C)[C@]1(OC(C)=O)CO[C@@H]1C[C@@H]2O`, the “T3 sensor activation Q score” value was -1.25.

`NC(N)=NC(=S)Nc1ccc(Cl)cc1`: the “T3 sensor activation Q score” value came out at 0.35.
